1 substance from patent US20210371518A1 (University of Texas, published 2021) can be followed below.

The chains behind the UniProt entries cited, without tags or fusion partners. Residues count along the entry.
UniProt Q8NHJ6, residues 22-259: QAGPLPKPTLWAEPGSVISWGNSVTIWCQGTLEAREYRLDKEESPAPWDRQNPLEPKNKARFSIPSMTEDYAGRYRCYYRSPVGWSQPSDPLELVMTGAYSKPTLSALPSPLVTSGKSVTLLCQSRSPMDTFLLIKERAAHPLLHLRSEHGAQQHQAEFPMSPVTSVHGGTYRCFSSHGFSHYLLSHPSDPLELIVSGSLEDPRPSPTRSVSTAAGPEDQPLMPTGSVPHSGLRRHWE
UniProt P02649, residues 19-317: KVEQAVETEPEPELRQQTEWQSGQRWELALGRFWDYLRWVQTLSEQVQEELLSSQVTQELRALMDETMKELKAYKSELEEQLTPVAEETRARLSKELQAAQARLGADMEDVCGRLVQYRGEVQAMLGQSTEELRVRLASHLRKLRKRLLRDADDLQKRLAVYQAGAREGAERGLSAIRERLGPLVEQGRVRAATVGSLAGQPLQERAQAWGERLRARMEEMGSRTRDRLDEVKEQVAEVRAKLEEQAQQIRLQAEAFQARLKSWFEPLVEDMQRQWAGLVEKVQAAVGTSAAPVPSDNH

In the test the target is LILRB4-Fc (human) (UniProt Q8NHJ6). The test can be described thus: SPR and bio-layer interferometry, LILRB4-Fc captured on protein A. (Biolayer interferometry detects binding as a change in optical thickness at a sensor tip.)

Results are given in words; binding and its absence hold for the method and conditions named. Some binding calls cover weakened binding; strength is not graded here.

As for “recombinant APOE (from UniProt P02649 19-317) (ligand)”, the binding result is “binds”.
